Source: PubChem BioAssay AID540256 (National Center for Advancing Translational Sciences (NCATS), 2011)
Hit rate of the full screen: of about 300,000 compounds, about 3,700 (1.2%) were called active. Inconclusive means that the source gave no clear call. Such entries were picked first, then a sample of the others. The call rests on the fitted dose curve; tested in HEK293 cells. Potencies beside an inconclusive call are fits to weak or partial responses and may not hold up.

Test: qHTS for Inhibitors of binding or entry into cells for Lassa Virus; further: nearly all actives have a fitted effect of over 50% in size
Details: Lassa virus pseudotype entry inhibition, cell reporter; series mostly up to 37.9 µM
Potency means the concentration at half of the fitted maximal effect.

Row | Structure (SMILES) | Potency
1 | Fc1ccc(-c2csc(=Nc3cccc(C(F)(F)F)c3)n2Cc2ccc3c(c2)OCO3)cc1 | inactive
2 | CCOC(=O)c1cc(-c2ccccc2)n(CC(=O)Nc2ccccc2OCC)c1C | inconclusive: 3.55 µM [activator, partial curve]
3 | O=C(c1ccc(COc2c(F)c(F)cc(F)c2F)o1)N1CCN(c2ccccc2)CC1 | inconclusive: 29.1 µM [inhibitor, single point]
4 | Cc1cc(C)c(C(=O)Nc2ccc(Br)c(C(F)(F)F)c2)c(C)c1 | inconclusive: 29.1 µM [inhibitor, single point]
5 | COc1ccc2c(c1)/C(=C\c1cccc(/C=C3/C(=O)Nc4ccc(OC)cc43)n1)C(=O)N2 | active: 2.82 µM
6 | CCCCNc1nc(N)nc(-c2cc(Cl)ccc2O)n1 | inconclusive: 32.6 µM [inhibitor, single point]
7 | C=CCN(CC=C)S(=O)(=O)c1ccc(C(=O)Nc2nc3c(s2)CCc2ccccc2-3)cc1 | active: 3.16 µM
8 | Cc1onc(-c2c(F)cccc2Cl)c1C(=O)Nc1cccc2nsnc12 | inconclusive: 29.1 µM [inhibitor, partial curve, poor fit]
9 | Cc1ccc(-n2cc(CN(C)Cc3nccn3C)c(-c3ccc(F)cc3)n2)cc1 | inconclusive: 17.8 µM [inhibitor, partial curve, poor fit]
10 | CCOc1ccc(C(=O)Nc2cccc([N+](=O)[O-])c2)cc1Br | inactive
11 | Cc1ccc(S(=O)(=O)Nc2cc(NC(=O)CN3CCOCC3)ccc2Cl)cc1 | inconclusive: 8.2 µM [inhibitor, partial curve, poor fit]
12 | O=C(NCc1ccccc1)C(c1ccccc1)N(C(=O)c1csnn1)C1CC1 (configuration not stated) | inconclusive: 35.5 µM [inhibitor, partial curve, poor fit]
13 | COc1cc(/C=N/NS(=O)(=O)c2ccc3ccccc3c2)ccc1OCc1ccc(C(=O)O)cc1 | inconclusive: 10 µM [inhibitor, partial curve, poor fit]
14 | C/C(=N\NC(=S)NC(C)C)c1ccccc1OC(F)F | inconclusive: 8.91 µM [inhibitor, partial curve, poor fit]
15 | Cc1nn(Cc2ccccc2)c(C)c1C(=O)NCCN1C(=O)S/C(=C\c2ccccc2)C1=O | inconclusive: 5.62 µM [activator, single point]
16 | COc1ccc(-c2csc3ncnc(N4CCN(c5ccccc5[N+](=O)[O-])CC4)c23)cc1 | inconclusive: 35.5 µM [inhibitor, single point]
17 | Nc1nc(CSC(=S)N2CCN(c3ccccc3)CC2)nc(Nc2ccccc2)n1 | inconclusive: 13 µM [inhibitor, partial curve]

For reference, 2 of the compounds above:
Row | Structure (SMILES) | Potency
1 | Fc1ccc(-c2csc(=Nc3cccc(C(F)(F)F)c3)n2Cc2ccc3c(c2)OCO3)cc1 | inactive
2 | CCOC(=O)c1cc(-c2ccccc2)n(CC(=O)Nc2ccccc2OCC)c1C | inconclusive: 3.55 µM [activator, partial curve]
